Measurements published in patent US12264163B2, “Compounds and methods for treating fibrotic pathologies” (Mayo Foundation for Medical Education and Research, priority 2019, dated 2025).

Key:
[1] = test system: YAP/TAZ; assay: YAP/TAZ nuclear localization in IPF patient-derived lung fibroblasts treated with dopaminergic agonists; format: cell-based, human; conditions: 10 μM, 2 hours
Experimental: IPF patient-derived lung fibroblasts cells treated 2 hours prior to fixation with diverse dopaminergic agonists (10 μM). N=4 different patient samples. % nuclear localization of YAP/TAZ was determined using automated imaging software. Scale bar represents 100 μm.
(§1) Media was then exchanged for the indicated conditions for each experiment. […] Cells or tissue sections were incubated overnight with mouse monoclonal antibody against αSMA (Sigma-Aldrich F3777), and/or a rabbit monoclonal antibody against YAP/TAZ (Cell Signaling D24E4) diluted 1:200 in PBS with 1% BSA. Cells were then washed and exposed to flourescence-conjugated secondary antibodies (Invitrogen) diluted 1:1000 and DAPI (Thermo Fisher Scientific). Images were taken with a Cytation5 (BioTek) microscope. For scoring αSMA positive cells (FIG. 12), an observer blinded to the treatment conditions counted αSMA-positive cells using a visual threshold for bright fibrous staining; a minimum of 200 cells was counted for each condition. YAP/TAZ localization was quantified (FIGS. 6-10, 24-26, and 29-30) using Gen5 (Biotek) software. Images were taken at 4× magnification of both DAPI and YAP/TAZ staining. […] Quantification of double positive (YAP/TAZ and αSMA) cells from lung tissue sections (FIG. 17-21) was performed similarly; however separate thresholds were established for both YAP/TAZ and αSMA. A minimum of 4000 cells was quantified for each mouse.

[2] = test system: αSMA; assay: αSMA intensity (fibroblast activation) in IPF patient-derived lung fibroblasts + TGFβ, dopaminergic agonist library; format: cell-based, human; conditions: 1 μM + TGFβ, 72 hours
Experimental: as §1

CCCN1CCC[C@@H]2Cc3n[nH]cc3C[C@H]21.Cl [(−)-Quinpirole•HCl, (−)-Quinpirole]
Nuclear localization (% of total cells) ([1]; IPF-1 patient fibroblasts): 80.12 % of total cells
Nuclear localization (% of total cells) ([1]; IPF-2 patient fibroblasts): 73.15 % of total cells
Nuclear localization (% of total cells) ([1]; IPF-3 patient fibroblasts): 80.54 % of total cells
Nuclear localization (% of total cells) ([1]; IPF-4 patient fibroblasts): 68.54 % of total cells
αSMA intensity (% of DMSO control) ([2]; IPF-1 patient fibroblasts): 84.61 % of DMSO control
αSMA intensity (% of DMSO control) ([2]; IPF-2 patient fibroblasts): 67.1295 % of DMSO control
αSMA intensity (% of DMSO control) ([2]; IPF-3 patient fibroblasts): 85.41 % of DMSO control
αSMA intensity (% of DMSO control) ([2]; IPF-4 patient fibroblasts): 95.1307 % of DMSO control
